{"source": "PubChem BioAssay AID1259254 (NCATS, 2017)", "aim": "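Finding genes that stop cells copying their DNA twice in one cycle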 (primary screen)", "cells": "human HCT116 colorectal cancer cells", "reagents": "single siRNA against human genes", "duration": "3 days", "measurement": "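Imaged Hoechst DNA stain sorts each cell into a cycle phase by DNA amount; per plate, G2 fraction set to 0% for non-targeting and 100% for GMNN siRNA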", "direction": "G2 robust z-score: higher = more G2 cells, more excess DNA replication", "call rule": "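An siRNA counts as active if its G2 robust z-score lies at least 5 MADs above the screen median; here such calls match roughly 38% of GMNN control or more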", "note": "Here is one part, drawn at random, of about 59,000 deposited reagents. About 1,550 of them (2.6%) were called active. 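G2 share is only a proxy for re-replication; each gene was hit by three separate siRNAs, and active genes were retested.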 Entries without a mark were called inactive. The numbers tell different reagents against one gene apart. Not all columns of the deposit are shown. The record does not give: the amount of reagent."}
{"Target gene": "FBXW7 (GeneID 55294)", "reagent no.": 1, "G2 robust z-score": 0.267}
{"Target gene": "FBXW7 (GeneID 55294)", "reagent no.": 2, "G2 robust z-score": -0.196}
{"Target gene": "FBXW7 (GeneID 55294)", "reagent no.": 3, "G2 robust z-score": -1.1}
{"Target gene": "GPD1L (GeneID 23171)", "reagent no.": 1, "G2 robust z-score": -1.01}
{"Target gene": "GPD1L (GeneID 23171)", "reagent no.": 2, "G2 robust z-score": -0.194}
{"Target gene": "GPD1L (GeneID 23171)", "reagent no.": 3, "G2 robust z-score": -0.604}
{"Target gene": "DEFB110 (GeneID 245913)", "reagent no.": 1, "G2 robust z-score": 0.584}
{"Target gene": "DEFB110 (GeneID 245913)", "reagent no.": 2, "G2 robust z-score": 0.123}
{"Target gene": "DEFB110 (GeneID 245913)", "reagent no.": 3, "G2 robust z-score": -0.565}
{"Target gene": "DEFB110 (GeneID 245913)", "reagent no.": 4, "G2 robust z-score": -0.734}
{"Target gene": "DEFB110 (GeneID 245913)", "reagent no.": 5, "G2 robust z-score": -0.874}
{"Target gene": "DEFB110 (GeneID 245913)", "reagent no.": 6, "G2 robust z-score": -0.899}
